According to PubChem BioAssay AID493014 (National Center for Advancing Translational Sciences (NCATS), 2011):
Among all 340,000 compounds or so, about 170 (0.05%) were called active. Inconclusive results, whose numbers are uncertain, are shown with a selection of clear calls. Calls follow the shape of the dose curve; as a rule, active = well fitted inhibition curve with a large enough effect in the signal ratio, with a control signal flat (not every such curve was filed as active); inconclusive = small, poorly fitted or top-dose-only effect, or effect the other way, or a change in a side signal; inactive = flat fitted curve, though single readings scatter; the % refers to the signal ratio. Where the call is inconclusive, the potency comes from a doubtful curve fit.

Test: qHTS Assay to Find Inhibitors of Chronic Active B-Cell Receptor Signaling;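 as to activity change, negative = inhibition: plate controls were basal doxycycline-induced cells for no effect and cells given 10 µM MG132 for full effect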
Settings: ABC-DLBCL IkBa-CBG/CBR reporter, luminescence ratio (green luciferase fused to IkBa over red control in TMD8 lymphoma cells), 4 h; activity change, negative = inhibition: at 46.1 µM (top of the series) unless noted
Summary of the method: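 Compounds up to 46 uM were incubated four hours with TMD8 cells whose green CBG68 luciferase is fused to IkappaBalpha; red CBR luminescence normalised the signal, and concentration-effect curves were fitted to fusion, red and ratio data.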
Potency is read from the fitted curve at half-maximal effect.

Structure (SMILES) | activity change, negative = inhibition | Potency
O=C(NC1CCCC1)c1cc2ccccc2o1 | inconclusive: -26.7% | –
CCOc1ccc(C(=O)N2CCN(C(=O)c3ccco3)CC2)cc1OCC | inconclusive: -3.55% | –
CC(C)=CCc1c(O)ccc(C(=O)Cc2ccccc2)c1O | inconclusive: 7.49% | –
COC(=O)CCNC(=O)Cc1c(C)n(C(=O)c2ccc(Cl)cc2)c2ccc(OC)cc12 | inconclusive: -13.1% | –
Cc1ccc(-n2c(SCC(=O)N3CCC(C(=O)O)CC3)nc3ccccc3c2=O)cc1C | – | inconclusive: 22.4 µM [falling, partial curve]
COc1ccccc1CN1C2CCCC1CC(NC(=O)/C=C/c1ccccc1)C2 (stereo unspecified) | inactive | –
Cc1nc(-c2ccccc2)sc1-c1n[nH]c(=S)n1C | – | inconclusive: 1.26 µM [rising, full curve, poor fit]
COCCn1c(-c2ccccc2)cnc1N | inconclusive: -3.39% | –
Nc1ccc(C(=O)N/N=C/c2sc(N3CCOCC3)nc2-c2ccccc2)cc1 | – | inconclusive: 20.6 µM [cytotoxic, partial curve]
CC(C)C(=O)c1cn(CC(=O)O)c2ccccc12 | inactive | –
O=c1c2ccccc2[nH]c(=S)n1Cc1cccnc1 | inactive | –
O=C(N/N=C/c1c[nH]c2ccccc12)c1cc(-c2cccc3ccccc23)n[nH]1 | – | inconclusive: 4.61 µM [rising, full curve, poor fit]
Cc1cc(Nc2ccccc2)nn1C(=O)c1ccc(Br)cc1 | inconclusive: 15.3% | –
N#CCCn1cc(C(=O)Nc2ccc([N+](=O)[O-])cc2)c(-c2cc3ccccc3o2)n1 | inconclusive: 0.0243% | –
CN1CCN(c2ccc([N+](=O)[O-])cc2NC(=O)c2cccs2)CC1 | inactive | –
CCN1CCN(c2nc3c(C)cccn3c(=O)c2/C=C(\C#N)C(=O)NCCCOC)CC1 | inactive | –
CCOC(=O)CSc1nc(-c2ccc(OC)cc2)ns1 | inactive | –
COc1ccc(C(C(=O)NC2CCCC2)N(CC2CCCO2)C(=O)Cc2cccs2)cc1OC (stereo unspecified) | – | inconclusive: 35.5 µM [falling, partial curve, poor fit]
N#Cc1c(NC(=O)c2cc([N+](=O)[O-])ccc2N2CCOCC2)sc2c1CCCC2 | inconclusive: 1.77% | –
CCOC(=O)C1CSC(CC(=O)Nc2ccc(OC(F)(F)F)cc2)C(=O)N1 (stereo unspecified) | inconclusive: -2.87% | –
O=C(NC12CC3CC(CC(C3)C1)C2)c1ccc(-c2ccccc2Cl)o1 | inconclusive: 10.7% | –
O=C(Nc1nccs1)c1cc(N2CCOCC2)nc2ccccc12 | inconclusive: 7.78% | –
Cc1cccc(-c2nc3sc(C)cc3c(=O)o2)c1 | – | inconclusive: 2.82 µM [falling, full curve, poor fit]
O=C(O)c1nn(CCOc2c(Cl)cccc2Cl)c(=O)c2ccccc12 | inconclusive: 20.8% | –
Cc1cc(C)c2cc3c(N)c(C(=O)Nc4c(C)[nH]c(=O)[nH]c4=O)sc3nc2c1 | inconclusive: 13.1% | –
Cc1ccc(-n2c(SCC(=O)N3CCOCC3)nnc2-c2cccnc2)cc1 | inconclusive: 6.72% | –

Structure (SMILES) | activity change, negative = inhibition | Potency
O=C(CCc1nnc2n(Cc3ccc(F)cc3)c(=O)c3ccccc3n12)NCCCN1CCOCC1 | inconclusive: 8.79% | –
Cc1ccc2c(CN3CCOCC3)cc(=O)oc2c1C | inconclusive: 1.12% | –
Cc1ccccc1C(=O)NC(=S)N(Cc1ccccc1)c1ccccn1 | inactive | –
COC(=O)c1c(NC(=O)c2ccc(S(=O)(=O)N3CCCCC3)cc2)sc2c1CCN(C)C2 | – | inconclusive: 31.6 µM [rising, single point]
COc1cccc(N2CCN(c3ncccn3)CC2)c1 | inconclusive: 5.2% | –
CCOC(=O)c1ccc(N=C2C(=S)N(c3ccc(C(=O)OCC)cc3)C(=N)N2/N=C/c2ccccc2)cc1 | – | inconclusive: 20.6 µM [falling, single point]
Nc1ccc(C(=O)N/N=C/c2ccccc2)cc1 | – | inconclusive: 35.5 µM [rising, single point]
COC(=O)[C@@]12CCCCN1[C@H](c1ccc(-c3ccc4c(c3)OCO4)c(OC)c1)[C@@H]1C(=O)N(C)C(=O)[C@@H]12 | inactive | –
COc1ccc(NC(=O)c2cccc(S(=O)(=O)N3CCc4ccccc43)c2)cn1 | inconclusive: 0.342% | –
O=C(N/N=C/c1ccco1)c1cccc(NC(=O)c2cccc(Cl)c2)c1 | – | inconclusive: 22.4 µM [falling, partial curve]
Cc1c(CN2CCC(C(=O)Nc3ccc(Oc4ccccc4)nc3)CC2)cnn1C | inactive | –
O=C1CCCN1c1ccc(S(=O)(=O)NCCOc2ccccc2)cc1 | inconclusive: -3.63% | –
CC(=O)c1ccc(N2CCN(C(=O)c3ccco3)C(C)C2)c(F)c1 (stereo unspecified) | inconclusive: 6% | –
O=[N+]([O-])c1cccc(-c2nc(-c3cccs3)c(-c3cccs3)[nH]2)c1 | inconclusive: -1.52% | –
O=C(c1coc2ccc(O)cc12)C1CC1 | inconclusive: 0.45% | –
C=CCc1ccccc1OCC(O)CN1CCN(c2ccc(OC)cc2)CC1 (stereo unspecified) | inactive | –
Cc1cc(C(=O)N(C)C2CCCCC2)no1 | inconclusive: 5.33% | –
COc1ccc(CCN(C(=O)c2snc(C(N)=O)c2N)C(C)C(=O)NC2CCCCC2)cc1OC (stereo unspecified) | inconclusive: -1.53% | –
O=C(CSc1nnnn1-c1ccc(F)cc1)Nc1ccc(N2CCOCC2)c(Cl)c1 | inconclusive: 0.41% | –
COc1ccccc1NC(=O)Oc1ccc(NC(=O)c2ccco2)cc1 | inconclusive: -7.98% | –
Cc1cc(-c2ccc(NC(=O)[C@@H]3CCCC[C@@H]3C(=O)O)c(C)c2)ccc1NC(=O)[C@@H]1CCCC[C@@H]1C(=O)O | inconclusive: -19.4% | –
CCn1c(SCC(=O)Nc2ccc(C(C)=O)cc2)nnc1C1CC1 | – | inconclusive: 35.5 µM [falling, partial curve, poor fit]
COc1cc2cc(CCCOC(=O)c3cccc(Br)c3)oc(=O)c2cc1OC | inactive | –
CCOc1ccc2nc(N3CCCCCC3)sc2c1 | – | inconclusive: 15.8 µM [falling, single point]
COc1cccc(NC(=O)CN(C)C(=O)c2ccc3c(c2)CC(c2ccccc2)OC3=O)c1 (stereo unspecified) | inconclusive: 1.26% | –

An excerpt from above in order of molecular weight, smallest number first.
Structure (SMILES) | activity change, negative = inhibition | Potency
Cc1ccc2c(CN3CCOCC3)cc(=O)oc2c1C | inconclusive: 1.12% | –
CCOc1ccc2nc(N3CCCCCC3)sc2c1 | – | inconclusive: 15.8 µM [falling, single point]
O=C(CSc1nnnn1-c1ccc(F)cc1)Nc1ccc(N2CCOCC2)c(Cl)c1 | inconclusive: 0.41% | –
